Source: paper PMC9277809
No constants are given. Whether binding was seen depends on the method and setting. Some entries that bind do so weakly or less than the wild type.

T1: NRR (rice (Oryza sativa L.)) (UniProt Q5ZEF1)
T1 sequence: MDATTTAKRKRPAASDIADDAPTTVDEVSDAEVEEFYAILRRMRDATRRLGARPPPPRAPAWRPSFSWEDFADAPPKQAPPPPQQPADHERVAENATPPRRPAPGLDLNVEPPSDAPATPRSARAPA

B1: OsNPR3 (protein, UniProt Q75HA6 1-589)
chain: METSTISFSSSSPPSPPPPQPAPGDIDAVSLGRLSRNLENLLDPAFLNCADAEIVLASGGGDPGGGAVVGVHRCILAARSRFFYDHFSSAPAPAPATAGDKPQLDLDGLVPGGRHIGRDALVAVLSYLYTGRLRSAPPEAAACLDDGCSHDACRPAIDFVVESTYAASGFQISELVSLFQRRLSDFVNKALAEDILPILVVASTCHLPELLNQCIQRVANSNLDNRYLEKRLPDDLYAKLKEFRVPDEPHSGILDPEHEKRVRNIHKALDSDDVDLVGMLLKESPVTLDDAFAIHYAAAYCEPKVLAELLKLESANVNLKNSSGYTPLHMACMRREPDIIVSLIEKGASVLERTQDGRDALTICKRLTREKDRNEKSEKCKERSKAYLCIGVLQQEIKRRPQILEDQMSAEESIATPLLVDNFHMRLLNLENRVAFARIFFPSEAKLVMRIAQADSTQEFAGLTSANFSKLKEVDLNETPTMQNRRLRERLDALTKTVELGRRYFPHCSEVLDKFLNEESTDLILLESGTAEDQQTKRMRFSELREDVRKAFTKDKAAGAAISSSTSASSSPRYETKLRPGNKKGKLSR
B2: OsNPR2 (protein, UniProt Q0JJ01 1-635)
chain: MPARSAVVVIAMEPSSSITIASSSSYLSNGSSPCSVSLAPPGAGAVAAQAAPVAAGEGGGGGGGGGGGGSSSVEVVSLNRLSANLERLLLDSDLDCSDADVDVADGGPPVPVHRCILAARSTFFYNLFAARGRGGDGAAGGGGGGGGGGGERTGGRPRYKMEELVPGGRVGRDAFLSLLGYLYTGKLRPAPDDVVSCADPMCPHDSCPPAIRFNVEQMYAAWAFKITELISLFQRRLLNFVDKTLVEDVLPILQVAFHSELTPVLEKCIRRIARSNLDNVSLDKELPPEVAVQIKEIRQKSQPNEGDTVISDPVHEKRVRRIHRALDSDDVELVKLLLNESEITLDDANALHYAAAYCDSKVVSELLDLRLANLNLKNSRGYTALHLAAMRREPAIIMCLLNKGAAVSQLTADGQSAMSICRRLTRMKDYNTKMEQGQESNKDRLCIDILDREMIRKPMAVEDSVTSPLLADDLHMKLLYLENRVAFARLFFPAEAKVAMQIAQADTTPEFGIVPAASTSGKLKEVDLNETPVTQNKRLRSRVDALMKTVELGRRYFPNCSQVLDKFLEDDLPDSPDALDLQNGTSDEQNVKRMRFCELKEDVRKAFSKDRADNSMFSILSSSSSSSPPPKVAKK

Key:
[1] = target: T1, NRR (rice (Oryza sativa L.)); test: two-hybrid; library screen: AH109 carrying the pGBKT7-bait mated with Y187 carrying the pGADT7-UbE3 library (1499 E3 ORFs) at 30 °C for 20-24 h; selection on SD-Leu-Trp-His-Ade; positive clones identified by PCR and sequencing
[2] = target: T1, NRR (rice (Oryza sativa L.)); test: two-hybrid; confirmation of single bait-E3 pairs in yeast; growth on DDO (SD-Leu-Trp) and QDO (SD-Leu-Trp-His-Ade); called yeast co-transformation assay for OsPAL1-OsFBK16

Binder | binding [1] | binding [2]
B1 | binds | binds
B2 | binds | binds
